Measurements as given in publication doi:10.1101/2023.09.07.556574.
Results are given in words; binding and its absence hold for the method and conditions named. In cells and extracts the contact can be indirect. Some results given as binding are weak or reduced against the parent protein; the word gives no strength.

The chains behind the UniProt entries cited, without tags or fusion partners. Residues count along the entry.
UniProt P52480: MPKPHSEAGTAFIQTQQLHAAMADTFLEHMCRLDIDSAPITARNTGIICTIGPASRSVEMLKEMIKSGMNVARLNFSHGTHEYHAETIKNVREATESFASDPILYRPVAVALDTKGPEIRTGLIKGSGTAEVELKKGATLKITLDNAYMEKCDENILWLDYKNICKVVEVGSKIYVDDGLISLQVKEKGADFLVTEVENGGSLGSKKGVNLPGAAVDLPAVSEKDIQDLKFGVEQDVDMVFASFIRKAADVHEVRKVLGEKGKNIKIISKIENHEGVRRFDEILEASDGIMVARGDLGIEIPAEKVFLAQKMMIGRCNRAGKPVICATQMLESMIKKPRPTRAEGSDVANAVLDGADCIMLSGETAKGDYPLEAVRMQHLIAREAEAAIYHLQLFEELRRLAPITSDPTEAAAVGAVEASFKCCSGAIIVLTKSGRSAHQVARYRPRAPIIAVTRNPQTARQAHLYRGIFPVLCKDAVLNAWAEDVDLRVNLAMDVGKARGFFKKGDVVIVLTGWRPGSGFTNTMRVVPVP
UniProt P14618: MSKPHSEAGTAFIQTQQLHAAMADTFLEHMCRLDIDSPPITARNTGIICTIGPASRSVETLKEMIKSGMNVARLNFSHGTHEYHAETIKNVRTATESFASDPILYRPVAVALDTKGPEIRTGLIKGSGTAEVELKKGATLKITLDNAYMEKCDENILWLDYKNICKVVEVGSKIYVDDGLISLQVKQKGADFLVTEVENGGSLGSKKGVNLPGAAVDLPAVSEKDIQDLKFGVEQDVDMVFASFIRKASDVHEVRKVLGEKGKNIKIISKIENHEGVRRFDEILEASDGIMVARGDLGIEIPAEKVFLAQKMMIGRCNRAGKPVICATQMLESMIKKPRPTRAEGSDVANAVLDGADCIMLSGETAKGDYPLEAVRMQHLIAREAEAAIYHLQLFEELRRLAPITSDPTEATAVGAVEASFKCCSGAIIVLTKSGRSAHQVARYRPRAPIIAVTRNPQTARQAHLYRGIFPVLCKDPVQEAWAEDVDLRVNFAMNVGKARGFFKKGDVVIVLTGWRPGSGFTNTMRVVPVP
UniProt P38647, residues 47-679: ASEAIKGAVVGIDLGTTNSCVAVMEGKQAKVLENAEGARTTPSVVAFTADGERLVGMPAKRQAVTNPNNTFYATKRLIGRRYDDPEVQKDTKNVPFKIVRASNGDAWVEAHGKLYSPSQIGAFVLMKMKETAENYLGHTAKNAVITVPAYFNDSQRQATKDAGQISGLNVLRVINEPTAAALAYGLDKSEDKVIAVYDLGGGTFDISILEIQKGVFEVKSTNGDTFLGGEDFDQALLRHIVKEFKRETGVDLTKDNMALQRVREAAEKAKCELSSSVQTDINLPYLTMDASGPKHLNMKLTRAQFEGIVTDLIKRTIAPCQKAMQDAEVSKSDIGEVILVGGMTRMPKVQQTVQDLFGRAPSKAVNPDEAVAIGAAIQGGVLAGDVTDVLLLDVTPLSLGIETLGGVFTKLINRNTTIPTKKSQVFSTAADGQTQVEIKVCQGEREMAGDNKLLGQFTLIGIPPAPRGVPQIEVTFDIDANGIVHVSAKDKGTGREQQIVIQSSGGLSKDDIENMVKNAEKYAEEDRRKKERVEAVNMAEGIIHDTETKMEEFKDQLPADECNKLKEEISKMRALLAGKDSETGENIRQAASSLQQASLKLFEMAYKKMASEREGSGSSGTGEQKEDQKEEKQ
UniProt P38646, residues 47-679: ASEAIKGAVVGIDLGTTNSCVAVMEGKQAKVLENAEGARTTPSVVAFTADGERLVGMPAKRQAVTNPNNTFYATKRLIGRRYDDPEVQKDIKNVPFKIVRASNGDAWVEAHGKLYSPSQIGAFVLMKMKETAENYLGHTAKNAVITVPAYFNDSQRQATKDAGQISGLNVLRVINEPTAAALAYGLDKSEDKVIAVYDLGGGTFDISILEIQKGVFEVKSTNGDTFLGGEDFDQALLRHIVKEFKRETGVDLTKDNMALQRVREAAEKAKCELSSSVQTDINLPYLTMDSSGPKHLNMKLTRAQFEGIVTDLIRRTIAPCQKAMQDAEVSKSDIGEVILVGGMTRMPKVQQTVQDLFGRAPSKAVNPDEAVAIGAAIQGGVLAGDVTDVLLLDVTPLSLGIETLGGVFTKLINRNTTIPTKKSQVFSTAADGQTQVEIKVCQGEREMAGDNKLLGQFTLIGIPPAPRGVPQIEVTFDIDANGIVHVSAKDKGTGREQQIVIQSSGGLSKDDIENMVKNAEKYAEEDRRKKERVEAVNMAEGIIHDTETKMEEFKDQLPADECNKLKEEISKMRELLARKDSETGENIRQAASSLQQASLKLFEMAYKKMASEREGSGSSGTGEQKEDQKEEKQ

Key:
[1] = molecular target: pyruvate kinase muscle 2 (PKM2), murine (mouse (endogenous in murine peritoneal macrophages)) (UniProt P52480); experiment: co-IP
[2] = molecular target: pyruvate kinase muscle 2 (PKM2), human (human (endogenous in HMDMs)) (UniProt P14618); experiment: co-IP
[3] = molecular target: pyruvate kinase muscle 2 (PKM2), murine (mouse (endogenous in murine peritoneal macrophages)) (UniProt P52480); experiment: co-IP; remark: listed apart in the source
[4] = molecular target: pyruvate kinase muscle 2 (PKM2), murine (mouse (endogenous in murine peritoneal macrophages)) (UniProt P52480); experiment: proximity ligation

For “GRP75, murine (from UniProt P38647 47-679)”, which binding [1] is on record?
Its binding is “binds”.

Which binding [2] does the source give for “GRP75, human (from UniProt P38646 47-679)” here?
Its binding is “binds”.

B1: UQCRC1, a subunit of ETC Complex III, murine (protein, UniProt Q9CZ13 35-480)
chain: TATFAQALQSVPETQVSILDNGLRVASEQSSHATCTVGVWIDAGSRYETEKNNGAGYFLEHLAFKGTKNRPGNALEKEVESIGAHLNAYSTREHTAYLIKALSKDLPKVVELLADIVQNSSLEDSQIEKERDVILREMQENDASMQNVVFDYLHATAFQGTPLAQAVEGPSENVRRLSRTDLTDYLNRHYKAPRMVLAAAGGVEHQQLLDLAQKHLSSVSRVYEEDAVPGLTPCRFTGSEIRHRDDALPLAHVAIAVEGPGWANPDNVTLQVANAIIGHYDCTYGGGVHLSSPLASVAVANKLCQSFQTFNISYSDTGLLGAHFVCDAMSIDDMVFFLQGQWMRLCTSATESEVTRGKNILRNALVSHLDGTTPVCEDIGRSLLTYGRRIPLAEWESRIQEVDAQMLRDICSKYFYDQCPAVAGYGPIEQLPDYNRIRSGMFWLRF
Which binding [3] does the source give for B1 here?
The binding was “binds”.

And the binding [4]?
The binding was “binds”.
